Data taken from publication PMC6484772, “S100A3 a partner protein regulating the stability/activity of RARα and PML-RARα in cellular models of breast/lung cancer and acute myeloid leukemia” (Oncogene, 2018).
Results are given in words; binding and its absence hold for the method and conditions named. In cells and extracts the contact can be indirect. A yes stands for co-enrichment or nearness to the bait. Other partners may have been found.

Protein sequences, listed by entry. Tags and fused reporters are not part of them.
UniProt P10276: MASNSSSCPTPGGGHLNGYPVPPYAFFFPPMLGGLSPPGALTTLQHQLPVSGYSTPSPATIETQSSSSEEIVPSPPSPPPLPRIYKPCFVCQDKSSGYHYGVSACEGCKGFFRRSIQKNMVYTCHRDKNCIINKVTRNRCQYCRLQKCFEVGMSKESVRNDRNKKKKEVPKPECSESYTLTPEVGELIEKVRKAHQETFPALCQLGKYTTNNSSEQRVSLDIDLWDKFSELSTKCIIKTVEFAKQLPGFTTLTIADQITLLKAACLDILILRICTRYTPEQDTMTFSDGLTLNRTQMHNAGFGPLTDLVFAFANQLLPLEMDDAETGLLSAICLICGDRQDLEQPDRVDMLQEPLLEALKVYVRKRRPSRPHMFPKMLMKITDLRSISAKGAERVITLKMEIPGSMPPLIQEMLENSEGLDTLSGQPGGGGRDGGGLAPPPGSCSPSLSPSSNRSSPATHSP
UniProt Q01469: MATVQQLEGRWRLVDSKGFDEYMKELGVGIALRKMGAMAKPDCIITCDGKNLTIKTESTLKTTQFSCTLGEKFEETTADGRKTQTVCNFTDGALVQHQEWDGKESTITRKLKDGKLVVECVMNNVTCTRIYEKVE
UniProt Q9P0M6: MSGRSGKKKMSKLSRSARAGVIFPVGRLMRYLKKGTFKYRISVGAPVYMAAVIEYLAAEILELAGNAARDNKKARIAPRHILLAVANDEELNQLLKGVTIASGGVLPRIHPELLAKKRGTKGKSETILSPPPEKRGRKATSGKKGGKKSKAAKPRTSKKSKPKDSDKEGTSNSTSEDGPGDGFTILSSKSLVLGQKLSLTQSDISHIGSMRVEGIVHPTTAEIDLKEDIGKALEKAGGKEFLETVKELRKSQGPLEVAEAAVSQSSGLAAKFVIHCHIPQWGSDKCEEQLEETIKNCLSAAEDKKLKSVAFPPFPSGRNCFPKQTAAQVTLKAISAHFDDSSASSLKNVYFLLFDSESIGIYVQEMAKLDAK
UniProt P04792: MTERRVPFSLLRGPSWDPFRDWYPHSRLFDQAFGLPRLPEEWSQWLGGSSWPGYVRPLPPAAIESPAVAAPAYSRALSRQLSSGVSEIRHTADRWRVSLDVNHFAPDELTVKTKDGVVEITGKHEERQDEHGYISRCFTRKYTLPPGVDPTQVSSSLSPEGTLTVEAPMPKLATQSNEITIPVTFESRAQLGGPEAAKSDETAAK

Biological target: FLAG-tagged RARα (UniProt P10276)
Assay: affinity purification with mass spectrometry; nuclear fractions (NABP and INP) of RA-453 and control FL-453 cells exposed to vehicle or ATRA, immunoprecipitated with anti-FLAG antibodies, quantitative proteomic analysis

binding	Molecule
binds	FABP5 (from UniProt Q01469 1-135)
binds	H2AW core-histone protein (from UniProt Q9P0M6 1-372)
binds	HSPB1/HSP27 (from UniProt P04792 1-205)
binds	S100A3 (over-expressed in COS-7) (natural protein, human, UniProt P33764 1-101, looked up, protein S100-A3; source: COS-7, transiently transfected (pcDNA3 expression plasmid for the S100A3 cDNA), in cell extract; immunoprecipitated with anti-S100A3 for the far-western) MARPLEQAVAAIVCTFQEYAGRCGDKYKLCQAELKELLQKELATWTPTEFRECDYNKFMSVLDTNKDCEVDFVEYVRSLACLCLYCHEYFKDCPSEPPCSQ
binds	CEP83 (protein, UniProt Q9Y592 1-701) MVVSTFTDMDTFPNNFPPGGDSGLTGSQSEFQKMLIDERLRCEHHKANYQTLKAEHTRLQNEHVKLQNELKHLFNEKQTQQEKLQLLLEELRGELVEKTKDLEEMKLQILTPQKLELLRAQIQQELETPMRERFRNLDEEVEKYRAVYNKLRYEHTFLKSEFEHQKEEYARILDEGKIKYESEIARLEEDKEELRNQLLNVDLTKDSKRVEQLAREKVYLCQKLKGLEAEVAELKAEKENSEAQVENAQRIQVRQLAEMQATVRSLEAEKQSANLRAERLEKELQSSSEQNTFLINKLHKAEREINTLSSKVKELKHSNKLEITDIKLETARAKSELERERNKIQSELDGLQSDNEILKAAVEHHKVLLVEKDRELIRKVQAAKEEGYQKLVVLQDEKLELENRLADLEKMKVEHDVWRQSEKDQYEEKLRASQMAEEITRKELQSVRLKLQQQIVTIENAEKEKNENSDLKQQISSLQIQVTSLAQSENDLLNSNQMLKEMVERLKQECRNFRSQAEKAQLEAEKTLEEKQIQWLEEKHKLHERITDREEKYNQAKEKLQRAAIAQKKRKSLHENKLKRLQEKVEVLEAKKEELETENQVLNRQNVPFEDYTRLQKRLKDIQRRHNEFRSLILVPNMPPTASINPVSFQSSAMVPSMELPFPPHMQEEQHQRELSLLRKRLEELETTQRKQLEELGSSGE
